Some entries share one result that the patent states for a list of compounds.
Columns and labels:
[1] = test system: Plasmopara viticola; test: Preventive foliar spray test on grape inoculated with Plasmopara viticola zoosporangia (Test Examples 3 and 4); format: in vivo; conditions: grape (variety: Berry A), flowable diluted to 200 ppm, foliar spray before inoculation, observed after 1 day at 23° C. plus 6 days in green house; Test Example 3
Method: Additionally, the control effect was evaluated by visually observing the area of a lesion on a sample plant in investigation and comparing the area of a lesion on a non-treatment plant and the area of a lesion on a treated plant with the compound of the present invention.
(§1) Sand loam was compacted in a plastic pot, and a grape (variety: Berry A) was seeded and grown in a green house for 40 days. The compounds of the present invention (I-1), (I-2), (I-6) to (I-12), (II-1), (III-1) and (IV-1) were formulated to flowable according to Formulation Example 6, then, diluted with water to provide given concentration of 200 ppm, and these diluted solutions were sprayed onto stems and leaves so as to give sufficient adhesion on the surface of grape leaves. After spraying, the liquid on the stem was air-dried, and a suspension of zoosporangiua of Plasmopara viticola (about 10,000 zoosporangiua were contained in 1 ml of the suspension) was inoculated by spraying. The amount of the sprayed suspension was about 2 ml for one plant. After inoculation, the plant was first grown for one day at 23° C. under 90% or more humidity, then further grown for 6 days in the green house, which was 24° C. in daytime and 20° C. in night-time.
Then, the areas of a lesion of the plants were obserbed. The lesion areas on the plants treated with the present compound (I-1), (I-2), (I-6) to (I-12), (II-1), (III-1) and (IV-1) were not more than 10% of the lesion area on a non-treatment plant.
as §1, with “(1-4) was” for “(I-1), (I-2), (I-6) to (I-12), (II-1), (III-1) and (IV-1) were”, “this” for “these”, “solution was” for “solutions were”
Then, the areas of a lesion of the plants were obserbed. The lesion areas on the plants treated with the present compound (I-4) was not more than 10% of the lesion area on a non-treatment plant.

[2] = test system: Phytophthora infestans; format: in vivo; conditions: tomato (variety: Ponterosa), flowable diluted to 500 ppm, foliar spray before inoculation, observed after 1 day at 23° C. plus 4 days in green house; Test Example 1

SMILES | lesion area on treated plants relative to the lesion area on a non-treatment plant [1] | lesion area on treated plants relative to the lesion area on a non-treatment plant [2]
C#CCOC(C(=O)Nc1cccnc1-c1ccc(OC)c(OC)c1)c1ccc(Cl)cc1 (stereo not drawn) [I-1, N-(2-(3,4-dimethoxyphenyl)pyridine-3-yl)-2-(2-propynyloxy)-2-(4-chlorophenyl)acetamide] | not more than 10% | not more than 10%
COc1ccc(-c2ncccc2NC(=O)C(O)c2ccc(Cl)cc2)cc1OC (stereo not drawn) [I-2, N-{2-(3,4-dimethoxyphenyl)pyridine-3-yl}-2-hydroxy-2-(4-chlorophenyl)acetamide] | not more than 10% | not more than 10%
COc1ccc(-c2ncccc2NC(=O)C(O)c2ccc(C)cc2)cc1OC (stereo not drawn) [I-4, N-{2-(3,4-dimethoxyphenyl)pyridine-3-yl}-2-hydroxy-2-(4-methylphenyl)acetamide] |  | not more than 10%
COc1ccc(-c2ncccc2NC(=O)C(OC)c2ccc(Cl)cc2)cc1OC (stereo not drawn) [I-12, N-(2-(3,4-dimethoxyphenyl)-pyridine-3-yl)-2-(4-chlorophenyl)-2-methoxyacetamide] |  | not more than 10%
C#CCOC(C(=O)Nc1ccncc1-c1ccc(OC)c(OC)c1)c1ccc(Cl)cc1 (stereo not drawn) [II-1, N-(3-(3,4-dimethoxyphenyl)pyridine-4-yl)-2-(2-propynyloxy)-2-(4-chlorophenyl)acetamide] | not more than 10% | not more than 10%
C#CCOC(C(=O)Nc1cnccc1-c1ccc(OC)c(OC)c1)c1ccc(Cl)cc1 (stereo not drawn) [III-1, N-(4-(3,4-dimethoxyphenyl)pyridine-3-yl)-2-(2-propynyloxy)-2-(4-chlorophenyl)acetamide] | not more than 10% | not more than 10%
C#CCOC(C(=O)Nc1ncccc1-c1ccc(OC)c(OC)c1)c1ccc(Cl)cc1 (stereo not drawn) [IV-1, N-(3-(3,4-dimethoxyphenyl)pyridine-2-yl)-2-(2-propynyloxy)-2-(4-chlorophenyl)acetamide] | not more than 10% | not more than 10%
